In patent US9321776B2, “Isochromene derivatives as phoshoinositide 3-kinases inhibitors” (CHIESI FARMACEUTICI S.p.A., priority 2013, dated 2016):
The structures given here were assigned with low confidence; some may be wrong.

The chains behind the UniProt entries cited, without tags or fusion partners. Where a name states a change or a piece, a line headed by the entry shows the natural chain unless it says otherwise.
UniProt P48736, whole entry: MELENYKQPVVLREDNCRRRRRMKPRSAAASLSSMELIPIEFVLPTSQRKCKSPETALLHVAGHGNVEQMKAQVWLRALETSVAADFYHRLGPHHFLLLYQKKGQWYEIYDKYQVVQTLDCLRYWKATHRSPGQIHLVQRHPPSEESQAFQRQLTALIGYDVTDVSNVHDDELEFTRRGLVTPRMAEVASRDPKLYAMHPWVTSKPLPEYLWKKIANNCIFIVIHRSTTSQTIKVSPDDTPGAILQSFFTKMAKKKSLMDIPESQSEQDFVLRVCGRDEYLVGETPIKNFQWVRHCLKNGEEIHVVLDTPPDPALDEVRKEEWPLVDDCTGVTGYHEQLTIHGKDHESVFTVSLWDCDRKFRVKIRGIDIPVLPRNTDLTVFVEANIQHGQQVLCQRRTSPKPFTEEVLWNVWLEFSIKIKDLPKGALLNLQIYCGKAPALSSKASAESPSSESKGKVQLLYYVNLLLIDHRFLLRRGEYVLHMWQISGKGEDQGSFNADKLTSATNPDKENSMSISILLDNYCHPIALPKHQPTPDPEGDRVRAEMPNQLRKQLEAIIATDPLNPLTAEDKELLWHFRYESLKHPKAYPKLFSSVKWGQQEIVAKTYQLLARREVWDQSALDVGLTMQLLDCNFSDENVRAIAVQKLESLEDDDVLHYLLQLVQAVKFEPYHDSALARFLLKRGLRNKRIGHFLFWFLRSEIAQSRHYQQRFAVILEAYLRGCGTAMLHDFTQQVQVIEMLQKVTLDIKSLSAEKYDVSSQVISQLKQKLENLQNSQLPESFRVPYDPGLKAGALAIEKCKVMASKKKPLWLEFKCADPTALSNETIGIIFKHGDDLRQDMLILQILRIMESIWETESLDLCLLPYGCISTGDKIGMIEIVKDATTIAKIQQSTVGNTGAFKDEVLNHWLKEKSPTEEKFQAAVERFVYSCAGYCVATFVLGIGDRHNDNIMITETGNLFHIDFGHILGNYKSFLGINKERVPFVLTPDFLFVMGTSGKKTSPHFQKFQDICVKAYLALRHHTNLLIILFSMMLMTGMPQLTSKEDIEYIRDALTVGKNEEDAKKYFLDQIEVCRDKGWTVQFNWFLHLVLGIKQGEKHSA
UniProt P42336, whole entry: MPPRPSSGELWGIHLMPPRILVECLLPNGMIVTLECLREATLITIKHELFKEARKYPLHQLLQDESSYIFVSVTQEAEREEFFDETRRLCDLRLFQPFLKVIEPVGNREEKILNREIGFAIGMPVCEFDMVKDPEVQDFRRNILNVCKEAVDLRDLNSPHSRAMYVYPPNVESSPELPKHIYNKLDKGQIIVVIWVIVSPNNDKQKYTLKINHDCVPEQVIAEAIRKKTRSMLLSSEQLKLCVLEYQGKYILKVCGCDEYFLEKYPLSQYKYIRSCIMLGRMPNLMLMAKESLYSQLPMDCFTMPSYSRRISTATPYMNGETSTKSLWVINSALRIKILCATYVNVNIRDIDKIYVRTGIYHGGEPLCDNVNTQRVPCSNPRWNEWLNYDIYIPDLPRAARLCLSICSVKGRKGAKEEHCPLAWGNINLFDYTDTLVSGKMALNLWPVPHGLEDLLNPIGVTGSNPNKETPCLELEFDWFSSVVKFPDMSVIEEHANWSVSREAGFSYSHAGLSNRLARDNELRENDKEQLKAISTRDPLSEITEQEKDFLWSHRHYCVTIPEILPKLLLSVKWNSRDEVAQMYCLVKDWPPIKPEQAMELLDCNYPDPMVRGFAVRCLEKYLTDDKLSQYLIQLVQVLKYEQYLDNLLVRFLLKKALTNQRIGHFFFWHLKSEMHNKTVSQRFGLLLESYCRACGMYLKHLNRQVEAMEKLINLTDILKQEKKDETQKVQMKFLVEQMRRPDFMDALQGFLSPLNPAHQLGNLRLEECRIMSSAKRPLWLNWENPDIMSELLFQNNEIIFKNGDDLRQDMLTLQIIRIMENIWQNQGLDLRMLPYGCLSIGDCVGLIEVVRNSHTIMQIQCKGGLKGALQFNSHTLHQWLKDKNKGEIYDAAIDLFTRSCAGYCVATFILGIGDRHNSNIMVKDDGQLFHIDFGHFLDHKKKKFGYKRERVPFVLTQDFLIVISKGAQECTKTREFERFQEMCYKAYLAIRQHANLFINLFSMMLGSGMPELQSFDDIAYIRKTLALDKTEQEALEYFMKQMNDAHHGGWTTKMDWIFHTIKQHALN
UniProt P42338, whole entry: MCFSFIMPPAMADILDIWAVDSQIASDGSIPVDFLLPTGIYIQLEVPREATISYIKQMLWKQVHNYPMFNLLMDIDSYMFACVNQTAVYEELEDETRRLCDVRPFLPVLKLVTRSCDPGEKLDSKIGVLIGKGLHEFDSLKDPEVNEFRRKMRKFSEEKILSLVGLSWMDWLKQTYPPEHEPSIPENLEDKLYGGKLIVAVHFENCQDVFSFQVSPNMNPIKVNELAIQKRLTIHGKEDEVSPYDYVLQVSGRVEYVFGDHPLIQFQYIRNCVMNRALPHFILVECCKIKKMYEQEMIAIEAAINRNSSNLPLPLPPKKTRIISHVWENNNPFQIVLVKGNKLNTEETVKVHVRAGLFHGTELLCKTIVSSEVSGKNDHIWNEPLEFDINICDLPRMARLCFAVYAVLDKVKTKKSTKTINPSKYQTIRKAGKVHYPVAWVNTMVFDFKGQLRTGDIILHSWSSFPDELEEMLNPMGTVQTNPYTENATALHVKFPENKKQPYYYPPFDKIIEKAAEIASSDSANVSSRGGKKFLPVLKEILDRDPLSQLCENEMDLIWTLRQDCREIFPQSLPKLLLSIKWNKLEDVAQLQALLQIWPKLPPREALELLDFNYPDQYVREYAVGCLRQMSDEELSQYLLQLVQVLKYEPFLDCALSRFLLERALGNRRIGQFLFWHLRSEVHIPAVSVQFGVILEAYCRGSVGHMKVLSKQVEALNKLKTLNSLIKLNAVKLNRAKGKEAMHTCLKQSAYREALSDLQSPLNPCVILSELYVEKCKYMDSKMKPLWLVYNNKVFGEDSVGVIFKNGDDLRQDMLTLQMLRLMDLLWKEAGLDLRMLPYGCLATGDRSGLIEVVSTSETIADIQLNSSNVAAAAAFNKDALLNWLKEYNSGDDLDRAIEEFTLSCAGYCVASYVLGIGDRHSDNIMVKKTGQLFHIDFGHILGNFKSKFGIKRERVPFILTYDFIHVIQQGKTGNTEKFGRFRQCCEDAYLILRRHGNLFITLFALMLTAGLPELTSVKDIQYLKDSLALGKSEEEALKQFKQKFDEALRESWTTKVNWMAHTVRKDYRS
UniProt O00329, whole entry: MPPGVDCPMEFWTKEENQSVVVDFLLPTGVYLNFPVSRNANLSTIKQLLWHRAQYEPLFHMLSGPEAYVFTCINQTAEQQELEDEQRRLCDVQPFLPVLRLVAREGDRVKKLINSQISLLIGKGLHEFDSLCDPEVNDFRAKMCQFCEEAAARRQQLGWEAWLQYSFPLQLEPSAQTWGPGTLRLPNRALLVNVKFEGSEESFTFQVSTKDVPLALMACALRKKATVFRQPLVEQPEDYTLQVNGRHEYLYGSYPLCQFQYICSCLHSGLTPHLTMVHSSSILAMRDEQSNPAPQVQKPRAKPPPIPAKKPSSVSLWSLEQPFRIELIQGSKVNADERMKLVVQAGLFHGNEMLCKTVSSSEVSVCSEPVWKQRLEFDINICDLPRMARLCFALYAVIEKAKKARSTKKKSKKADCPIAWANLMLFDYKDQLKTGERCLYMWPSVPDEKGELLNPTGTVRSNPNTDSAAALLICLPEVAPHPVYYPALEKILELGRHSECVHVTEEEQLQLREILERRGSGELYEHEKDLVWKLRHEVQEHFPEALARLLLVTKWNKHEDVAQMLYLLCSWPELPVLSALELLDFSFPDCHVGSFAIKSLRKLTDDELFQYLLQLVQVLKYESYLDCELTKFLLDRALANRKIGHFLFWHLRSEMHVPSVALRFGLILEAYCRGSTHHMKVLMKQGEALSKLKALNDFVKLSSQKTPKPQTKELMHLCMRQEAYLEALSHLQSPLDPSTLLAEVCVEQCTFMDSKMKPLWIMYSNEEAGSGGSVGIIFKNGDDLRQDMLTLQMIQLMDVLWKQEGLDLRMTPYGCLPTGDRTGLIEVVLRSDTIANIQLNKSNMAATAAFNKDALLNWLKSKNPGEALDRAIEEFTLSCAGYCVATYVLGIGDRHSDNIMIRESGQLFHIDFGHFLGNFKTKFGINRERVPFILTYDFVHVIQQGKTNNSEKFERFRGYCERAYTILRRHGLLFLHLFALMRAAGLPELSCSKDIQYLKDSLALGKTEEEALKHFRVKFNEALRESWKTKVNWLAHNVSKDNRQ
UniProt P27986, whole entry partner: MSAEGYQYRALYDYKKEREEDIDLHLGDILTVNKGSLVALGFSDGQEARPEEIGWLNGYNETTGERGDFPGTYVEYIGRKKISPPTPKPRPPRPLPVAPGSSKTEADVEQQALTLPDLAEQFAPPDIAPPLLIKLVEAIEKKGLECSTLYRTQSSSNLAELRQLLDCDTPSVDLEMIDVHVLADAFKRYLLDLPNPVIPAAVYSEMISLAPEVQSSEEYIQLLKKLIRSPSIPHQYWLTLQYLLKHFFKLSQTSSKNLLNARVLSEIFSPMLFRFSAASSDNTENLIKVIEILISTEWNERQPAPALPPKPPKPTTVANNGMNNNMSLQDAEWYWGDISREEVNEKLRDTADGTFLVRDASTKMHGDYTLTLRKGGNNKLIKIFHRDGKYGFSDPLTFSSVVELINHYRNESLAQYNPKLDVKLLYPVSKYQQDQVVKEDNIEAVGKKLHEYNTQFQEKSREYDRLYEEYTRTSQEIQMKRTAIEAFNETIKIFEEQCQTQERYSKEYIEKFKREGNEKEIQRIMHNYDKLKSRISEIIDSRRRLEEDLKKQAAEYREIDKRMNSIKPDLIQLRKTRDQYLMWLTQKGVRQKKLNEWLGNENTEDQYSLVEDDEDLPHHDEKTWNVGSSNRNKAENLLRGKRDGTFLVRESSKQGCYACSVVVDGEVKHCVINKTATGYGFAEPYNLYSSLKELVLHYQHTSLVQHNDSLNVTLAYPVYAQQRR

Key:
Assay in all cases: PI3K enzyme inhibitory activity in the cell free assay (ADP-Glo Kinase Assay)
Type in all cases: biochemical
[1] = molecular target: PI3Kγ (Homo sapiens, UniProt P48736); conditions: read-out: PI3K gamma inhibition; human recombinant PI3Kγ, ATP 30 μM; tested form: 2HCl
[2] = molecular target: PI3Kα (Homo sapiens, UniProt P42336); conditions: read-out: PI3K alpha inhibition; human recombinant PI3Kα, ATP 50 μM; tested form: 2HCl
[3] = molecular target: PI3Kβ (Homo sapiens, UniProt P42338); conditions: read-out: PI3K beta inhibition; human recombinant PI3Kβ, ATP 100 μM; tested form: 2HCl
[4] = molecular target: PI3Kδ (Homo sapiens, UniProt O00329); conditions: read-out: PI3K delta inhibition; human recombinant PI3Kδ, ATP 80 μM; tested form: 2HCl

Question: With CC(C)N1CCC(N2CC=C(c3c(C(C)n4nc(-c5cc(O)cc(F)c5)c5c(N)ncnc54)oc(=O)c4ccccc34)CC2)CC1 (stereo not shown) as the molecule, how does the IC50 [1] read?
Answer: Its IC50 is greater than 1000 nM.

Question: What about the IC50 [2] of the same molecule?
Answer: Its IC50 is greater than 1 µM.

Question: What about the IC50 [3] of the same molecule?
Answer: Its IC50 is 10 to 1000 nM.

Question: What about the IC50 [4] of the same molecule?
Answer: Its IC50 is less than 10 nM.
